According to the supplement of paper PMC10849652:
The list shows a part of the results.

The chains behind the UniProt entries cited, without tags or fusion partners. Where a name states a change or a piece, a line headed by the entry shows the natural chain unless it says otherwise.
UniProt Q9NY74: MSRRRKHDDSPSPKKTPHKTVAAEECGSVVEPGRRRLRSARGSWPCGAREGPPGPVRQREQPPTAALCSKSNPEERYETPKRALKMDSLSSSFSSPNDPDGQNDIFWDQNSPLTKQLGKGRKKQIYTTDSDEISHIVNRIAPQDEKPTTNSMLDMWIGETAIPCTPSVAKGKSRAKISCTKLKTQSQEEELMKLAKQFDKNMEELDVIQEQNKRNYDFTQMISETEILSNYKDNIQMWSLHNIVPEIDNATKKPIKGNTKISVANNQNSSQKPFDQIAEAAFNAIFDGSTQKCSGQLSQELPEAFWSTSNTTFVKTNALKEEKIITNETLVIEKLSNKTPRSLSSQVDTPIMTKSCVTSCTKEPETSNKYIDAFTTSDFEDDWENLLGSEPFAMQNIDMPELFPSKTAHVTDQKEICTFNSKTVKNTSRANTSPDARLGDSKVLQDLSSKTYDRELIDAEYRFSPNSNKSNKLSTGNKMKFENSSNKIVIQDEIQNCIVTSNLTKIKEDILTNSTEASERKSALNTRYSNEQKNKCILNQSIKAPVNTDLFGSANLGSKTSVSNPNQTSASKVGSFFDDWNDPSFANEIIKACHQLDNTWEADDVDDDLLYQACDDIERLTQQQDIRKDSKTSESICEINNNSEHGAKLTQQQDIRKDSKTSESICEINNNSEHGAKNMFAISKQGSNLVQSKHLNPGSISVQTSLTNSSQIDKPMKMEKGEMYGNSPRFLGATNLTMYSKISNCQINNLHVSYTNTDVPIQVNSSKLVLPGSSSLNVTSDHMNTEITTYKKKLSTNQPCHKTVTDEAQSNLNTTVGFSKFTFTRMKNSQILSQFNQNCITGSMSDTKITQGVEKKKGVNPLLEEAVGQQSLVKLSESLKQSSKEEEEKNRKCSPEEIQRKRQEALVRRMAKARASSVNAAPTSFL
UniProt P41212: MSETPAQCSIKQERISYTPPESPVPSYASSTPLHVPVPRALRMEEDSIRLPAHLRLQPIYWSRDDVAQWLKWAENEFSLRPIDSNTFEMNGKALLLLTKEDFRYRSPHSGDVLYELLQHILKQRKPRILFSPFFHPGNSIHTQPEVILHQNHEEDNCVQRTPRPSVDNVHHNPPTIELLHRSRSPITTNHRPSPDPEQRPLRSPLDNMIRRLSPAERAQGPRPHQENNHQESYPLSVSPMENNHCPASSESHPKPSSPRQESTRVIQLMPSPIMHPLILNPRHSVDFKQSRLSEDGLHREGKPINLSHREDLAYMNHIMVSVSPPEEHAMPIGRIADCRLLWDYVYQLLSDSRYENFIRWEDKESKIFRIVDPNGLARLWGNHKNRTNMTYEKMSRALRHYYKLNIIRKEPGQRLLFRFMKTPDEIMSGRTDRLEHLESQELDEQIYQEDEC
UniProt Q8WUF8: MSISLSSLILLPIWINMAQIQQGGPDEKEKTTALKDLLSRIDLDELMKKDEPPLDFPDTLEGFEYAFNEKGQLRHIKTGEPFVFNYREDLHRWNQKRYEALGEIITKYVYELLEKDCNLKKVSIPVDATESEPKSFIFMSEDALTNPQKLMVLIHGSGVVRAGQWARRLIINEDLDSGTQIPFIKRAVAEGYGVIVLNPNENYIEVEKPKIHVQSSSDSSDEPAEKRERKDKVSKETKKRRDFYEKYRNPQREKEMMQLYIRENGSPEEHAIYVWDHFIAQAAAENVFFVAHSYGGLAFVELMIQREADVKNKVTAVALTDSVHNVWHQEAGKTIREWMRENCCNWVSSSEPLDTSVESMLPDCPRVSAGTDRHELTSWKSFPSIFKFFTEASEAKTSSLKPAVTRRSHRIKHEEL
UniProt P11474: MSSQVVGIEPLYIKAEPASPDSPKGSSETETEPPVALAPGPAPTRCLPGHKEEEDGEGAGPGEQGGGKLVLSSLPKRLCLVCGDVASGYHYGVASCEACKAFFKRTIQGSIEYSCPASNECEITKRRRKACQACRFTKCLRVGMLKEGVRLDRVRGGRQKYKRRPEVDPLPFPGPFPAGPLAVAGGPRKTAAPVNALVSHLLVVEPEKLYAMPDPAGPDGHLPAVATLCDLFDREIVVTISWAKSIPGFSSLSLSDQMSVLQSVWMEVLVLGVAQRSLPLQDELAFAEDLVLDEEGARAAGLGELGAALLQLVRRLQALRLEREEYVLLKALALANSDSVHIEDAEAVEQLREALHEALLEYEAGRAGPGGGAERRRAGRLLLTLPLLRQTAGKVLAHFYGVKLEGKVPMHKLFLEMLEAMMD
UniProt Q8IWE2: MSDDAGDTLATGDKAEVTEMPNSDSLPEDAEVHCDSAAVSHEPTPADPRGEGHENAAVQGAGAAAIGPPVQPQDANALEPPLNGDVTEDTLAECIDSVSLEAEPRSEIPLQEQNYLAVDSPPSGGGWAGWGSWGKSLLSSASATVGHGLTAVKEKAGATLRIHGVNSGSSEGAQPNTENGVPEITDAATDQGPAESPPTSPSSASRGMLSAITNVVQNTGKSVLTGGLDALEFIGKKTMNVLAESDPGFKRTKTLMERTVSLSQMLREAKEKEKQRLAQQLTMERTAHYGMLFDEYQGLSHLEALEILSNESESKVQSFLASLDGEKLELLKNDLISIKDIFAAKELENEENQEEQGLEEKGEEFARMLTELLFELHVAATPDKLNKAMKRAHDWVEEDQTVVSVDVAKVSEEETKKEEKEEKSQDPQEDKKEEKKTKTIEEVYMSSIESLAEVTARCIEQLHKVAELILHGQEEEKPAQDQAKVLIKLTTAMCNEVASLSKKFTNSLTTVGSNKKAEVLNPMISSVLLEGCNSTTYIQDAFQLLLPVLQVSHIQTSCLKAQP
UniProt O75460: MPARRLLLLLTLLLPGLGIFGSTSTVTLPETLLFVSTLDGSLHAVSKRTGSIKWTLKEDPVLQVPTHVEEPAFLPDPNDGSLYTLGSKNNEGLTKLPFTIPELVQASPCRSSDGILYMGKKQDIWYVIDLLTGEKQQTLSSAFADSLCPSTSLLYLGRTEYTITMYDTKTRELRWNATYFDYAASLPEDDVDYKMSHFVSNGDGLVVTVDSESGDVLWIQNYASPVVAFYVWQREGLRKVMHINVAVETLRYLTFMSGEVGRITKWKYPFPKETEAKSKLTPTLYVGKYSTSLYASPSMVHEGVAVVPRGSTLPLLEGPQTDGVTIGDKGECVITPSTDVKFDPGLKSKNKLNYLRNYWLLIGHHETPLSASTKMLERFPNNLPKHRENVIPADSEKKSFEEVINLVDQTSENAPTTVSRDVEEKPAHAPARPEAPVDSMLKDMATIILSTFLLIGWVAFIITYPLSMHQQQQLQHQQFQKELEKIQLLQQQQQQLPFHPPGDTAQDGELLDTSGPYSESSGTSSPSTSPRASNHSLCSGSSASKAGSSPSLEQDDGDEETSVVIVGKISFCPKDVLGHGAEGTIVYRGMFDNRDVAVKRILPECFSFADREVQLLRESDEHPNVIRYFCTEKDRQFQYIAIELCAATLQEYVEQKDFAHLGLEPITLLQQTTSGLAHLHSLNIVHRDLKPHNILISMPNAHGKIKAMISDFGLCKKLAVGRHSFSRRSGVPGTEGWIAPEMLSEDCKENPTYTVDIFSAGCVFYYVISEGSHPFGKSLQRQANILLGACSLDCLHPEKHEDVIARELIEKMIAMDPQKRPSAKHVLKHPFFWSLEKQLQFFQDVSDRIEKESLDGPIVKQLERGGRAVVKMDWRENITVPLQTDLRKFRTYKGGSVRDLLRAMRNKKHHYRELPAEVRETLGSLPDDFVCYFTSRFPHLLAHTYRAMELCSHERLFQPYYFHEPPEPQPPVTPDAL
UniProt Q9BVV8: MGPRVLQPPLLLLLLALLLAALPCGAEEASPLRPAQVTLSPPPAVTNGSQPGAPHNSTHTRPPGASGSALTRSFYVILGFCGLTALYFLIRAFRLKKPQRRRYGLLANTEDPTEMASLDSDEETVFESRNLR
EXOC3L2, A0A1C7CYX0, UniProt A0A1C7CYX0, whole entry, looked up: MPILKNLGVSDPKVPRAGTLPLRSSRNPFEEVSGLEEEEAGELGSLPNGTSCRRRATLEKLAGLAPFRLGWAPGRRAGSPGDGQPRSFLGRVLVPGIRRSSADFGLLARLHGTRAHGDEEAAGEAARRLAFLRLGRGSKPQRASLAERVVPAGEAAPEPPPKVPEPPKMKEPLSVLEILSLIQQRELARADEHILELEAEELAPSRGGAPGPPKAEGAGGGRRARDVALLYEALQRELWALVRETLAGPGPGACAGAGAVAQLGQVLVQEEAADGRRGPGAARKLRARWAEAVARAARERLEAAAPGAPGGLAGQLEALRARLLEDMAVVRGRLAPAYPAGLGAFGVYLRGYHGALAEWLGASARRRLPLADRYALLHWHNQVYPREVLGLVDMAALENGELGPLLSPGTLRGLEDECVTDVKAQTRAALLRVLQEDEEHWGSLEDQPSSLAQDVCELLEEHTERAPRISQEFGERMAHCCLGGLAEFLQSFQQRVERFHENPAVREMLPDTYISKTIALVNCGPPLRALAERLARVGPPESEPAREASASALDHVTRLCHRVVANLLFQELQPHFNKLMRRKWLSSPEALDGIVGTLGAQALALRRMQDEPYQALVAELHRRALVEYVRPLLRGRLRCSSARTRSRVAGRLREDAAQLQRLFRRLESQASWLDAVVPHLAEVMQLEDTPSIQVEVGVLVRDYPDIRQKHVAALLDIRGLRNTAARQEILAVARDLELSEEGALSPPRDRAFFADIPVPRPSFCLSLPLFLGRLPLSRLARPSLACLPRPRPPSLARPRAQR
UniProt Q9H790: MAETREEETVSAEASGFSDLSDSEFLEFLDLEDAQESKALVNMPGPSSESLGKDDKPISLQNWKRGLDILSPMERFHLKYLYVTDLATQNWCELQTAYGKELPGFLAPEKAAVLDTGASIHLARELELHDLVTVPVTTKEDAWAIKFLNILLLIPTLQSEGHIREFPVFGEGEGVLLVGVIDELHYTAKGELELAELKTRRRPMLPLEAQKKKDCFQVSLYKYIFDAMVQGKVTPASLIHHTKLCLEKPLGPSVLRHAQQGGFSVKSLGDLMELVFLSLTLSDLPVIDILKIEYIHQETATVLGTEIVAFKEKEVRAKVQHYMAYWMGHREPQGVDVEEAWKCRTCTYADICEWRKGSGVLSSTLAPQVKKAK
UniProt Q8IW50: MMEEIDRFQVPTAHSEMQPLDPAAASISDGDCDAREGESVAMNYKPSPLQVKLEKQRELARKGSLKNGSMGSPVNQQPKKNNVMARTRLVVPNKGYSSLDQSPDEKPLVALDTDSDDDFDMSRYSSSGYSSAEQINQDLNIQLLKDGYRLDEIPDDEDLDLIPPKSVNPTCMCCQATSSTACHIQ
UniProt Q9NVM1: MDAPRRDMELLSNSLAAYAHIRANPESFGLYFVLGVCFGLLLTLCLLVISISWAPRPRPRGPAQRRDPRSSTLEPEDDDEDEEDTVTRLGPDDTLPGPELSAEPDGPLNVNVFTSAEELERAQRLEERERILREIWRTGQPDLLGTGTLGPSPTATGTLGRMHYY
UniProt Q5VUB5: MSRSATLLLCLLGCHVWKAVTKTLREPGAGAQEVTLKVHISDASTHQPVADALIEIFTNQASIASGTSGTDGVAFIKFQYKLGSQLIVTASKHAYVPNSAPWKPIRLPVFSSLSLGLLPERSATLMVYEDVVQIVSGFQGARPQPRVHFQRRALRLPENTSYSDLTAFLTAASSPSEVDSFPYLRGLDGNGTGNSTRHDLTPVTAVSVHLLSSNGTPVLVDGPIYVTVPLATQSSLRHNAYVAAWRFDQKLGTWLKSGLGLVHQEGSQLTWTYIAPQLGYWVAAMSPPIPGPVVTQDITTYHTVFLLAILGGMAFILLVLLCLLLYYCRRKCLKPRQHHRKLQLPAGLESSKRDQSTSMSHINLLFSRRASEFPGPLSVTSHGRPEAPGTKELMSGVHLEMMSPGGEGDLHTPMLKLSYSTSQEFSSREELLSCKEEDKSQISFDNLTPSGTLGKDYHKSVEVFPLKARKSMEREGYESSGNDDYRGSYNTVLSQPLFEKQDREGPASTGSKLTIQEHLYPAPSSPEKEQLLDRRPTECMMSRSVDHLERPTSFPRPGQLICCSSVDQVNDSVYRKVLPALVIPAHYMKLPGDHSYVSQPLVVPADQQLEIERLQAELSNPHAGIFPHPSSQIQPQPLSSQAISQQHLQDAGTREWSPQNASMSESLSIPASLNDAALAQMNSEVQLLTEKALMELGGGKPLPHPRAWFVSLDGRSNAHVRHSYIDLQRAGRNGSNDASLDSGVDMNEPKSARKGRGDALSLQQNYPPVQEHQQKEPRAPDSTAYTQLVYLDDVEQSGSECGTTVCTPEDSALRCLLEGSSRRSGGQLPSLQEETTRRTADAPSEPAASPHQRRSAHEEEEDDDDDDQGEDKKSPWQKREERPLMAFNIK
UniProt Q9BQ89: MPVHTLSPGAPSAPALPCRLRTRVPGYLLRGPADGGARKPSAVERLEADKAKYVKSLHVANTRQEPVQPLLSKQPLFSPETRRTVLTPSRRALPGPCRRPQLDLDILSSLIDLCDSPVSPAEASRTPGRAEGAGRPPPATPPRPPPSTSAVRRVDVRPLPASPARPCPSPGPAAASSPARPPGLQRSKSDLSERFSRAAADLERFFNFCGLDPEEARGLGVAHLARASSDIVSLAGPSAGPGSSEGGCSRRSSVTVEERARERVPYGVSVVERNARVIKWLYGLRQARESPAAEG

What follows are targets tested with NCC(=O)Nc1ccc(-n2nc(C(F)(F)F)cc2-c2ccc3c(ccc4ccccc43)c2)cc1 (assay: log2 fold change, soluble protein after heating vs DMSO (PISA); higher = thermal stabilisation; K562 lysate, 10 uM; active = over 0.2 and 3.5 SD of the protein, either way, in both replicates (recomputed)).
How it was run: (§1)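 To prepare the extract, K562 pellets were dounce-homogenised in PBS pH 7.4 with 1 mM MgCl2, giving crude material at 1 mg/mL protein. This was treated with 10 μM compound for 30 min, then heated in aliquots for 3 min over 48°C-58°C before pooling and addition of NP-40 to 0.5% at 4°C. Centrifugation at 21,000xg for 90 min left soluble protein in the supernatant, which TMTpro 16plex LC-MS/MS quantified with equalised channel sums. Results are log-two fold changes in thermal stability compared with solvent controls, from duplicates.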

Target	log2 fold change
ETAA1 (UniProt Q9NY74)	inactive: 0.012
ETV6 (UniProt P41212)	inactive: 0.085
ETV5 isoform 2 (UniProt P41161)	inactive: 0.017
FAM172A (UniProt Q8WUF8)	inactive: 0.063
EWSR1 (UniProt H7BY36)	inactive: 0.136
FAM49B, A0A1W2PRQ0	inactive: 0.19
FAM126B (UniProt Q8IXS8)	inactive: -0.097
ESRRA (UniProt P11474)	inactive: -0.094
FAH isoform 2 (UniProt P16930)	inactive: 0.075
EXOG (UniProt Q9Y2C4)	inactive: -0.051
FAM114A1 (UniProt Q8IWE2)	inactive: 0.228
EXOC6B (UniProt Q9Y2D4)	inactive: -0.041

Each target was assayed with O=C(CCCCCCC(=O)Nc1ccccc1)NO [vorinostat] in the same assay as above.
How it was run: as §1

Target	log2 fold change
ERV3-1 (UniProt Q14264)	inactive: 0.047
ERN1 (UniProt O75460)	inactive: -0.387
ETAA1 (UniProt Q9NY74)	inactive: 0.431
FAM174C (UniProt Q9BVV8)	inactive: 0.322
EXOC3L2, A0A1C7CYX0	inactive: 0.013
FAM172A (UniProt Q8WUF8)	inactive: 0.175
EXO5 (UniProt Q9H790)	inactive: 0.043
ESCO2 (UniProt Q56NI9)	inactive: -0.43
FAM219A (UniProt Q8IW50)	inactive: 0.019
FAM53C (UniProt Q9NYF3)	inactive: -0.183
FAM171A2 (UniProt A8MVW0)	inactive: -0.031
FAM120A, A0A494C0Y9	inactive: -0.071
FAM126B (UniProt Q8IXS8)	inactive: -0.336
EVA1B (UniProt Q9NVM1)	inactive: 0.141
FAM171A1 (UniProt Q5VUB5)	inactive: -0.058
EURL (UniProt Q9NYK6)	inactive: 0.032
ETV1 (UniProt P50549)	inactive: -0.137
FAM110A (UniProt Q9BQ89)	inactive: -0.141
EXOG (UniProt Q9Y2C4)	inactive: 0.056
FAM114A1 (UniProt Q8IWE2)	inactive: 0.25
